Experimental data reported in patent publication US11975048B2, “Long-acting fatty acid-conjugated GnRH derivatives and pharmaceutical compositions containing same” (NOVEL PHARMA INC., priority 2019, dated 2024).
Part of at least one peptide drawing is inferred or uncertain, most often the ends. Square brackets hold non-standard residues; d marks the D form. Peptide text beside a SMILES is read from it. * marks the point of attachment. Palmitoyl = CCCCCCCCCCCCCCCC(=O)*

System: ovary of female rats
Assay: Assay for ovarian morphological change (H&E stained ovaries)
Format: in vivo
Conditions: single subcutaneous dose 12.5 mg/kg (as cyclodextrin compositions), day 28, versus non-treated and methyl-β-cyclodextrin groups
Experimental: Experiments were carried out to examine whether or not the fatty acid-conjugated GnRH derivatives maintain the functional characteristics and incur a morphological change in the ovary.
The pharmaceutical compositions of Examples 9, 10, 13, 14, 15, and 16 were each subcutaneously injected at a single dose of 12.5 mg/kg once at the back of the neck to female rats 9 weeks old. Rats to which no drugs were administered were used as a non-treated control while an aqueous solution of 3 mg of methyl-β-cyclodextrin was injected to a negative control. Each group consisted of 3 rats.
On day 28 after injection, the rats were subjected to an autopsy to excise the ovaries which were then stained with hematoxylin-eosin (H&E stain).
Briefly, ovaries were stained with H&E and observed as follows.
11. After finishing the above procedures, the specimen slides were scanned using a ScanScope® AT slider scanner (Aperio) and the images thus stored were analyzed using the ImageScope program (Aperio). The scanned images are depicted in FIGS. 6 to 9.
It is known that when administered to rats, a GnRH agonist reduces the formation of secondary follicles and Graafian follicles (see: Mohammadbeigi et al., Short-term Administration of Gonadotropin-releasing Hormone Agonist (Buserelin) Induces Apoptosis in Rat Ovarian Developmental Follicles, July 2016). […]

## CCCCCCCCCCCCCCCC(=O)N[C@@H](CCC(N)=O)C(=O)N[C@@H](Cc1c[nH]cn1)C(=O)N[C@@H](Cc1c[nH]c2ccccc12)C(=O)N[C@@H](CO)C(=O)N[C@@H](Cc1ccc(O)cc1)C(=O)N[C@H](CC(C)C)C(=O)N[C@@H](CC(C)C)C(=O)N[C@@H](CCCNC(=N)N)C(=O)N1CCC[C@H]1C(=O)NCC [Example 6, Palmitic acid-Gln-His-Trp-Ser-Tyr-D-Leu-Leu-Arg-Pro-NHEt] (Palmitoyl-QHWSY[dL]LRP-NHEt)
  numbers of secondary or Graafian follicles in the ovary: decreased
